Results deposited as PubChem BioAssay AID743454 (Peter MacCallum Cancer Centre, 2014).
In all, the deposit lists about 18,000 reagents; this is a part drawn at random. In the full data, 450 (2.5%) got an active call. 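Single biological run; no consistent viability z cut-off exists, so the class columns, not z-scores, define the calls.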 A number with no mark means an inactive call.

Aim: 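Search for knock-downs that restore vorinostat killing in resistant colon cancer cells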 (primary screen)
Cells: human HCT116-VR colon cancer cells, selected for vorinostat resistance
Reagent: siRNA pool against human genes, 40 nM siRNA pool
Timing: vorinostat for 24 h, read-out about 72 h after transfection
Conditions: vorinostat at 2.5 µM final
Measurement: 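Cell viability by CellTiter-Fluor and caspase 3/7 activity by luminescence, each scaled to mock wells per plate, duplicates averaged, then robust z-scored over all plates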
Scale: viability robust z-score: higher = more viable cells than screen typical; caspase robust z-score: higher = more caspase 3/7 activity than screen typical
Call rule: 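a knock-down is a hit when classed RV1 or RV2 for lowered viability, or CA1 or CA2 for caspase activation; those lethal without drug were dropped; hits were retested singly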

The opening 3 entries, to show the layout:
gene knocked down	viability hit class	caspase hit class	viability robust z-score	caspase robust z-score
PKP2 (plakophilin 2)	no change	no change	-0.05	0.05
USP25 (ubiquitin specific peptidase 25)	no change	no change	-0.71	0.48
USP34 (ubiquitin specific peptidase 34)	no change	no change	0.69	-1.11

Main list, from the first entry:
gene knocked down	viability hit class	caspase hit class	viability robust z-score	caspase robust z-score
PKP2 (plakophilin 2)	no change	no change	-0.05	0.05
USP25 (ubiquitin specific peptidase 25)	no change	no change	-0.71	0.48
USP34 (ubiquitin specific peptidase 34)	no change	no change	0.69	-1.11
MYH14 (myosin heavy chain 14)	no change	no change	0.52	-0.16
FIGNL1 (fidgetin like 1)	no change	no change	0.38	-0.79
SIRT5 (sirtuin 5)	no change	no change	0.27	1.46
CLIC6 (CLIC family member 6)	no change	no change	-0.44	-0.9
GSTO2 (glutathione S-transferase omega 2)	no change	no change	0.98	-0.06
QRFP (pyroglutamylated RFamide peptide)	no change	no change	-0.37	1.48
RETSAT (retinol saturase)	no change	no change	-1.1	-0.48
SKP2 (S-phase kinase associated protein 2)	no change	no change	0.2	-0.37
APBA1 (amyloid beta precursor protein binding family A member 1)	no change	no change	1.17	-0.15
ZNF749 (zinc finger protein 749)	no change	no change	0.65	1.51
RABGAP1 (RAB GTPase activating protein 1)	no change	no change	-0.63	-1.07
LNPK (lunapark, ER junction formation factor)	no change	no change	-0.26	-1.34
XKRX (XK related X-linked)	no change	no change	0.76	-0.24
NECAP1 (NECAP endocytosis associated 1)	no change	no change	0.82	0.66
ATP5PD (ATP synthase peripheral stalk subunit d)	no change	no change	-0.06	-0.9
ECHDC2 (enoyl-CoA hydratase domain containing 2)	no change	no change	-0.07	3.09
ZNF416 (zinc finger protein 416)	no change	no change	0.07	0.64
MACROD2 (mono-ADP ribosylhydrolase 2)	no change	no change	-0.9	-1
TP53I11 (tumor protein p53 inducible protein 11)	no change	no change	0.4	2.44
STAT2 (signal transducer and activator of transcription 2)	no change	no change	-0.8	-0.64
WNT5A (Wnt family member 5A)	no change	no change	-0.18	0.29
CD247 (CD247 molecule)	no change	no change	0.32	-0.94
TCTA (T cell leukemia translocation altered)	no change	no change	2.05	-0.33
LETMD1 (LETM1 domain containing 1)	no change	no change	0.73	0.02
SRPX2 (sushi repeat containing protein X-linked 2)	no change	no change	0.12	-0.88
IPO13 (importin 13)	no change	no change	-1.33	0.74
ART3 (ADP-ribosyltransferase 3 (inactive))	no change	no change	-0.71	-0.73
C1QL2 (complement C1q like 2)	no change	no change	1.14	1.47
C5orf46 (chromosome 5 open reading frame 46)	no change	no change	1.74	-0.36
SPRING1 (SREBF pathway regulator in golgi 1)	no change	no change	-0.15	-0.88
DUSP13B (dual specificity phosphatase 13B)	no change	no change	0.54	0.42
EDN3 (endothelin 3)	no change	no change	0.86	-0.8
PPARGC1B (PPARG coactivator 1 beta)	no change	no change	0.42	0.63
CACNG8 (calcium voltage-gated channel auxiliary subunit gamma 8)	no change	no change	0.68	-0.8
SLC38A10	no change	no change	-1.23	0.4
IL10RA (interleukin 10 receptor subunit alpha)	no change	no change	1.9	0.12
